{"source": "paper PMC9278858", "key": {"[1]": {"target": "T1, TAP-NTD (isolated N-terminal domain of Sen1, TAP-tagged, expressed from pGAL1) (S. cerevisiae) (UniProt Q00416)", "T1 sequence": "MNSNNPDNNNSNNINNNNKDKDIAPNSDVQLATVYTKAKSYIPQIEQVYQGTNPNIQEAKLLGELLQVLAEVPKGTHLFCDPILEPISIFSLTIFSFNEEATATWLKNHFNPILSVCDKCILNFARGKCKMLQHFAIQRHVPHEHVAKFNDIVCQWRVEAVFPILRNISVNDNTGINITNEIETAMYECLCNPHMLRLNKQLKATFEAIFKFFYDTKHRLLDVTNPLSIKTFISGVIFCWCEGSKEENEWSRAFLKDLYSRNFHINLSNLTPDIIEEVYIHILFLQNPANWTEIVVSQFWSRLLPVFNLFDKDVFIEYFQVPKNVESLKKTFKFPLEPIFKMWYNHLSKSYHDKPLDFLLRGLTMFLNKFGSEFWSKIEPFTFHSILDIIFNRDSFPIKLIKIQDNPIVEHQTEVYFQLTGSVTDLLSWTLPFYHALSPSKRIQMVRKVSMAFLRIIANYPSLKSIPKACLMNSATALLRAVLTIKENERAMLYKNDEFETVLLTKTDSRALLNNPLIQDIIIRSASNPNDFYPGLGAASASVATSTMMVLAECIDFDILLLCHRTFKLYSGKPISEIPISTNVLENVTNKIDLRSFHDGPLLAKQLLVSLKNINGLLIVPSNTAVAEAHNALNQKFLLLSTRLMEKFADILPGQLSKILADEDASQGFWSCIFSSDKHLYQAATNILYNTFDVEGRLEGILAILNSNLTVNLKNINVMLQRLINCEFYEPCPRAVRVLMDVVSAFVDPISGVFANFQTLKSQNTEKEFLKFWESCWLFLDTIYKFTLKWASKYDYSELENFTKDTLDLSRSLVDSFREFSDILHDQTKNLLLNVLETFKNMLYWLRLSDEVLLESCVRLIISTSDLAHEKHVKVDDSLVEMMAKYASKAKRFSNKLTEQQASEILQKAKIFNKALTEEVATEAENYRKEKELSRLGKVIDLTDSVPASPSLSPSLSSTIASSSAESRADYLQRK", "experiment": "affinity purification with mass spectrometry; TAP-tagged Sen1 versions (full length, ΔNTD, NTD) overexpressed from pGAL1 as baits; yeast lysates in 10 mM sodium phosphate pH 7.5, 200 mM sodium acetate, 0.25% NP-40, treated with RNase A; IgG Sepharose; elution by TEV cleavage; untagged control"}, "[2]": {"target": "T2, TAP-Sen1ΔNTD (Sen1 lacking the N-terminal domain, TAP-tagged, expressed from pGAL1) (S. cerevisiae) (UniProt Q00416)", "T2 sequence": "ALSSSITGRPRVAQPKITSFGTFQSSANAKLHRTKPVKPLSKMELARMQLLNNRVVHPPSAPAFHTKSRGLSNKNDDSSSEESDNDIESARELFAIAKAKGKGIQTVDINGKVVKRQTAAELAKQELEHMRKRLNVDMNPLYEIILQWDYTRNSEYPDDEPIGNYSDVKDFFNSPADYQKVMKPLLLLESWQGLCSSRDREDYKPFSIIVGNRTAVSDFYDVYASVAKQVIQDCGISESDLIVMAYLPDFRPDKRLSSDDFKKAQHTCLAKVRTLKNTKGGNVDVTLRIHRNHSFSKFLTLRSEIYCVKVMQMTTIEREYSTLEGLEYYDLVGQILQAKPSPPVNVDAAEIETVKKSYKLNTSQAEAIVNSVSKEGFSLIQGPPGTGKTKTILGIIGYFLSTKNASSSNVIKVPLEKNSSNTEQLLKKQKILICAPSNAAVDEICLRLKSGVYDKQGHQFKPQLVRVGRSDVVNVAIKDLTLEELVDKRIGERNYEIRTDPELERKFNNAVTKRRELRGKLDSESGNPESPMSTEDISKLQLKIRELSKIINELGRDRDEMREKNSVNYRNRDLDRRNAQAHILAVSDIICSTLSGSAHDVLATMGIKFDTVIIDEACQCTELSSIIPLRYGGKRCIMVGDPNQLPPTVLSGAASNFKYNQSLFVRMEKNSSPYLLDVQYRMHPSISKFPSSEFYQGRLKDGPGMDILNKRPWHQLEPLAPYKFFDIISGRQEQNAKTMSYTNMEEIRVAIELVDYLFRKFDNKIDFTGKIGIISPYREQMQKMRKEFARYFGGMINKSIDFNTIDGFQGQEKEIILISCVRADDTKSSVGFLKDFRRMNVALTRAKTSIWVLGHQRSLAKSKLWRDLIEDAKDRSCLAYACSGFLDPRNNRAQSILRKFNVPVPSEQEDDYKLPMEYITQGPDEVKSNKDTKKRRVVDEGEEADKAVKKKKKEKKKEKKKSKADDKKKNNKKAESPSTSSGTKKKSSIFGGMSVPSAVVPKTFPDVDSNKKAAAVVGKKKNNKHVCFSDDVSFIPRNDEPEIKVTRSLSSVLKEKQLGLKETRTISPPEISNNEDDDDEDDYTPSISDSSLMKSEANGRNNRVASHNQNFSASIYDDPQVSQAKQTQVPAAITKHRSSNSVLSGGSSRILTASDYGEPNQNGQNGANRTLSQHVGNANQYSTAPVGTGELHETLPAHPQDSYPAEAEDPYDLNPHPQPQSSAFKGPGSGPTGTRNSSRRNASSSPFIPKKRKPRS", "experiment": "affinity purification with mass spectrometry; TAP-tagged Sen1 versions (full length, ΔNTD, NTD) overexpressed from pGAL1 as baits; yeast lysates in 10 mM sodium phosphate pH 7.5, 200 mM sodium acetate, 0.25% NP-40, treated with RNase A; IgG Sepharose; elution by TEV cleavage; untagged control"}, "[3]": {"target": "Sen1-TAP (wild-type Sen1 fused to a TAP tag) (S. cerevisiae) (UniProt Q00416)", "experiment": "affinity purification with mass spectrometry; Sen1-TAP or Sen1-3–TAP as bait; yeast lysates; untagged control"}, "[4]": {"target": "Sen1-3–TAP (Sen1 W773A E774A W777A fused to a TAP tag) (S. cerevisiae) (UniProt Q00416)", "experiment": "affinity purification with mass spectrometry; Sen1-TAP or Sen1-3–TAP as bait; yeast lysates; untagged control"}}, "note": "Results are given in words; binding and its absence hold for the method and conditions named. Binding seen in cells or lysates may run through a third protein. A yes stands for co-enrichment or nearness to the bait. Other partners may have been found. For some of these results: A no says only that the protein was not detected with the bait. For some of these results: Tags and fused reporters may be left off the sequences shown."}
{"binder": "Ctf4 (protein, UniProt Q01454 1-927) MVSVIDKLVFDFGGKTLVSLAPDNNTLCVANKNGLTKILKTNNPEEEPETLDSSKLVSSIKCYSNSHFLMTTMQGDALRYNIDSSQEELLARFALPLRDCCVIHSGKMAVFGGDDLELILLELDDETHKKHAIKIDEQVSQISYNSQMNILAVSMINGKVQIFSLTSTIPNKVHELNDYIVANSYDDTHRDKILSNMMDDIDKDNDNDLSETADPDENNVADPEFCAANRICTRVAWHPKGLHFALPCADDTVKIFSIKGYSLQKTLSTNLSSTKAHFIDLQFDPLRGTYIAAVDLNNKLTVWNWETSEIHYTREFKRKITNIAWKIQADSKTLDLVLGTWSGSIAIVQNLAESVVSNIPDQSVAESSTKHGLFVDSESDLENLEGNDDINKSDKLFSDITQEANAEDVFTQTHDGPSGLSEKRKYNFEDEEDFIDDDDGAGYISGKKPHNEHSYSRVHKTHSFPISLANTGKFRYMPFSPAGTPFGFTDRRYLTMNEVGYVSTVKNSEQYSITVSFFDVGRFREYHFEDLFGYDLCFLNEKGTLFGQSKTGQIQYRPHDSIHSNWTKIIPLQAGERITSVAATPVRVIVGTSLGYFRSFNQFGVPFAVEKTSPIVALTAQNYRVFSVHYSQFHGLSYSLSELGTSSKRYYKRECPLPMSLPNINSDMKKDANLDYYNFNPMGIKSLFFSSYGDPCIFGSDNTLLLLSKWRSPEESKWLPILDSNMEIWKMSGGKETTDIHVWPLALAYDTLNCILVKGKHIWPEFPLPLPSEMEIRMPVFVKSKLLEENKAILNKKNEIGADTEAEEGEEDKEIQIPVSMAAEEEYLRSKVLSELLTDTLENDGEMYGNENEVLAALNGAYDKALLRLFASACSDQNVEKALSLAHELKQDRALTAAVKISERAELPSLVKKINNIREARYEQQLK", "values": [{"measurement": "binding", "setting": "[1]", "value": "binds"}, {"measurement": "binding", "setting": "[2]", "value": "no binding"}, {"measurement": "binding", "setting": "[3]", "value": "binds"}, {"measurement": "binding", "setting": "[4]", "value": "no binding"}]}
{"binder": "Mrc1 (protein, UniProt P25588 1-1096) MDDALHALSSLTAKKRTTTYKKVAVPILDENDNTNGNGPNDIDNPPELTGNGFLFANATLNRVKNRLEGKKAPEQNHNNGKDRSENSLPTQLISNLYDGGEELEKSEVKDNSYSEKNVSSSFTQTQRIPVSIQQDKVFNVPIHSVNDGKPTQLIKEDGLVNETSQALKTPLTTGRPGATQRIDSSGATSQTQPIKSIEPQSQIITTSSNHSNALSPKIPIIPTELIGTSPLFQSIQNRGPDTQMDVPPQTAHDEDKTQAIGIPQATHQEQKTQIDTVAQTLQDEVPHTLKIREIQSELASEDSKREKARNVEYKKPQKPIPTKKFFSKESFLADFDDSSSNEDDDIKLENAHPKPVQNDDELHENKSVELNLTDETRINEKRVPLLSSYANNLKREIDSSKCITLDLDSDSDEYGDDDMDSIKLSKDESVLPISQLSKATILNLKARLSKQNQKLSQRPNKSKDPKVDHNVLLNTLRKASRKQILDHQKEVIETKGLKLEDMAKEKEIVENLLEQEILRNKRIRQKEKRREKLEENDFQLNAHDSGSDSGSESSGFALSGNEIADYESSGSENDNRRESDSEKEDDEIILKQKKSHHVKHIINESDSDTEVEAKPKEKADESLPKRIAINLGHYGDNIGEDTDKFQETNVLDTQNIEEVMAERNTIENEVKDDVYVNEEADEAIRRQLIDKEKLQLKQKEKEHEAKIKELKKRGVTNFFEMEAEESEDEWHGIGGADGEGSDDYDSDLEKMIDDYSKNNFNPHEIREMLAAENKEMDIKMINKILYDIKNGGFRNKRAKNSLELELSDDDEDDVLQQYRLKRRELMRKRRLEIGDDAKLVKNPKSSAFFESMVEDIIEYKNPFGAEEEYNLDITSTATDLDTQDNSINVGDNTGNNEQKPVDQKNKKVIISEDFVQKSLSFLKSNNYEDFETDKELSRIQHGNDEAIEDLYTLKQNSSIKSFTNSQTDSTTSKTVNTIIDLEKRPEDEDEVENGDTSLVGVFKHPSIIKSFASRTDINDKFKEGNKTVKILKSYKTVGSSKASITYMGKTRKLIAPKRKTEGSHRYHHDHHNKKMKMKTKTKSNKLFESGQDSFDN", "values": [{"measurement": "binding", "setting": "[1]", "value": "no binding"}, {"measurement": "binding", "setting": "[2]", "value": "no binding"}, {"measurement": "binding", "setting": "[3]", "value": "binds"}]}
